These are yes or no findings as the source states them, for the method shown. For some assays here: Binding seen in cells or lysates may run through a third protein. Some entries that bind do so weakly or less than the wild type.
Key:
[1] = biological target: T1, TORC1 (Transducer of Regulated CREB activity 1) (UniProt Q6UUV9); test: pull down assay
T1 sequence (looked up): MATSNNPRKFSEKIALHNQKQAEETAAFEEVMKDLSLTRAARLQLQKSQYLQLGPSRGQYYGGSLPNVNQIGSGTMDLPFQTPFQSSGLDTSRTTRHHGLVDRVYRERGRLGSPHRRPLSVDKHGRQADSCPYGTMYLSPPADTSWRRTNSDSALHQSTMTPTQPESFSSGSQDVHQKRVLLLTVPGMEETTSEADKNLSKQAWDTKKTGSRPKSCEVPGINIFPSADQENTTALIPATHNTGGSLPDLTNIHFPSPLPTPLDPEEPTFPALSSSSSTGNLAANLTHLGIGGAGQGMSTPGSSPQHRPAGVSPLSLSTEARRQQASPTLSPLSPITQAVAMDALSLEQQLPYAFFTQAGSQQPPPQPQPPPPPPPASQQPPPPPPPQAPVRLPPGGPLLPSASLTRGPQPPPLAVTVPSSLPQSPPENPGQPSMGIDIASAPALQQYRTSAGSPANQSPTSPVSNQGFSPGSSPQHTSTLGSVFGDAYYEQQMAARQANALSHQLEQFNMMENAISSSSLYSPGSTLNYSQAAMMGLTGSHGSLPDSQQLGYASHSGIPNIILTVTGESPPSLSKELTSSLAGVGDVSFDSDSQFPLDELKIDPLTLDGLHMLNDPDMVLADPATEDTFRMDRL

[2] = biological target: T2, TORC N-terminal coiled-coil domain (TORC1-129) (UniProt Q6UUV9); test: GST pull-down of 35S-labeled TORC1
T2 sequence (looked up): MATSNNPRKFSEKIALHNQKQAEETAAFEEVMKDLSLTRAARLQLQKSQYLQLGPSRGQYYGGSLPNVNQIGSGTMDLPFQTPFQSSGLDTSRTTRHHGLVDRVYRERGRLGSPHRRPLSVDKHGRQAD

Binder: LENRVAVLENQNKTLIEELKALKDLYCHKSD (peptide, UniProt P16220-1 311-341, looked up) [CREB leucine zipper motif alone]
- binding [1]: binds

B1: TORC1 (Transducer of Regulated CREB activity 1) (protein, UniProt Q6UUV9 1-634, looked up)
chain: T1 sequence (looked up)
- binding [2]: binds

— patent publication US20100190693A1
